For at least one compound, name, drawing or mass did not settle the structure. No end group written: not given here.
Legend:
[1] = test system: cultured cortical astrocytes; assay: sniffer-patch detection of glutamate release from cultured wild-type astrocytes with GluR1(L497Y)-transfected HEK cells; assay type: cell-based, mice; conditions: brief (<1 sec) pressure application, 500 μM TFLLR, 300 μM ATP, 180 μM bradykinin
Method: HEK 293 cells were transfected with a 1:3.5 ratio of GFP and GluR1(L497Y) using the calcium phosphate method using effectence for 6-8 hours, after which the media was replaced and supplemented with 1 mM kynurenic acid and 10 μM N-(4-hydroxyphenylpropanoyl) spermine or 10 μM CNQX. The transfected HEK cells were subsequently trypsinized and replated onto astrocyte feeder layers derived from either wild-type or PAR1−/− mice 24 hours post-transfection, and recordings were performed 24 hours after replating. The prepared transfectant was used as a biosensor in the following examples.
In this experimental example, the glutamate release from astrocytes was quantitatively evaluated in real time by a “sniffer-patch” detection system. […]
Cultured astrocytes were prepared from P0-P3 postnatal mice obtained from KIST SPF. […] Astrocyte cultures prepared in this way were previously determined by GFAP (glial fibrillary acidic protein) staining to be greater than 95% astrocytes (Nicole et al., 2005). […]
GluR1(L497Y)-transfected HEK cells were directly plated onto an astrocyte monolayer, and subsequently the whole cell HEK current response under voltage clamp during brief 0.2 sec application of the PAR1 activator TFLLR (500 μM), ATP (300 μM), or bradykinin (180 μM), respectively, from a pressurized pipette was recorded (FIGS. 1a, and 1b).

[2] = test system: wild-type astrocytes; assay: Fura-2 Ca2+ imaging in wild-type astrocytes; assay type: cell-based, mice; conditions: brief (<1 sec) pressure application; 500 μM TFLLR, 300 μM ATP, 180 μM bradykinin; Fura-2-AM
Method: FIG. 1a is a schematic illustrating experimental setup and a GFP fluorescent image of astrocyte—GluR1(L497Y)/GFP transfected HEK cell co-culture (upper left panel). […] The Fura2-AM loading was performed by incubating with 5 μM Fura2-AM in 1 μM pluronic acid (Molecular Probes) for 30 min at room temperature. The calibration bar is 20 μm.

How did the “inward current in HEK cells expressing GluR1(L497Y)” value [1] turn out when RPPGFSPFR [bradykinin] was run?
The value was “elicited an inward current”.

What about the “astrocytic intracellular Ca2+” value [2] of the same sequence?
Its value is “increased”.

— patent US7842471B2, “Ultra sensitive biosensor for detecting bio-signal transmitters, and detector and detecting method using the same” (priority 2007, dated 2010)
